# Measured values from the supplement of paper PMC6411743.
# The chains behind the UniProt entries cited, without tags or fusion partners. Where a name states a change or a piece, a line headed by the entry shows the natural chain unless it says otherwise.
# UniProt Q92636: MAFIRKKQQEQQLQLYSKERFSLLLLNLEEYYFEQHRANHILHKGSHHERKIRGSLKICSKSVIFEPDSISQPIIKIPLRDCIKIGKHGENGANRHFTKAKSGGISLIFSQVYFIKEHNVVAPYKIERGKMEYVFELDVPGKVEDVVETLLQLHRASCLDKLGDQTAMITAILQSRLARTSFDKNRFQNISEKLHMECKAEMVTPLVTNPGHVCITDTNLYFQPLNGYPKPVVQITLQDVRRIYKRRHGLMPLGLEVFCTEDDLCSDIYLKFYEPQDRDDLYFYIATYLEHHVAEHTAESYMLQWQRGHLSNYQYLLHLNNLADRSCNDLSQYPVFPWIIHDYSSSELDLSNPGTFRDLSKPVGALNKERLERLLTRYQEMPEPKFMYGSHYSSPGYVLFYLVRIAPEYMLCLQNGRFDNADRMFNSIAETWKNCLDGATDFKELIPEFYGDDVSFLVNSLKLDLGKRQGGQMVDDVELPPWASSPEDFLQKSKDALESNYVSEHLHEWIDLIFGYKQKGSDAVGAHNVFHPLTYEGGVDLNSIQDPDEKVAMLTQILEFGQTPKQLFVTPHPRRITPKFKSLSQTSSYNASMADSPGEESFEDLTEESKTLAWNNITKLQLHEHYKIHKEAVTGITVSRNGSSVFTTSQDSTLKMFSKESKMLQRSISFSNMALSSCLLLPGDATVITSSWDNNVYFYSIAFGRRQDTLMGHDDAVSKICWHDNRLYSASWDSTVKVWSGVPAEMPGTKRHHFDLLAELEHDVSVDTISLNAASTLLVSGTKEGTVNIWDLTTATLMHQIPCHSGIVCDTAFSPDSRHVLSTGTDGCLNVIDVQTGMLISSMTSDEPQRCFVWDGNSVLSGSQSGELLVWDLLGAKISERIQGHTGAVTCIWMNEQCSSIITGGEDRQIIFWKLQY
# UniProt Q969N2: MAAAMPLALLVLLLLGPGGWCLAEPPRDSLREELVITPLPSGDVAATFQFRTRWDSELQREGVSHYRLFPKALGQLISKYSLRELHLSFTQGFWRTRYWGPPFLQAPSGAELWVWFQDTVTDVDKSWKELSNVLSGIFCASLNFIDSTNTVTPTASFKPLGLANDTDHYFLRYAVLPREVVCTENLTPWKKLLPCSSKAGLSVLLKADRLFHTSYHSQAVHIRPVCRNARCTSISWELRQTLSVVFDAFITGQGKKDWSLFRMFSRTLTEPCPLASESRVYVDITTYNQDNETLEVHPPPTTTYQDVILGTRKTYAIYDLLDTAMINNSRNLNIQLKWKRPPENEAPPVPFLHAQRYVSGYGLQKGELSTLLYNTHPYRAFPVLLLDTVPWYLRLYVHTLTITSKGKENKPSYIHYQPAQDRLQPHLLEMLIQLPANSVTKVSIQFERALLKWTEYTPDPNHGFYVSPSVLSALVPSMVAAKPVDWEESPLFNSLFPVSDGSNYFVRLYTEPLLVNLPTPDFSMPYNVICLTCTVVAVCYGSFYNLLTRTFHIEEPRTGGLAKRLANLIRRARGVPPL
# UniProt Q8TBN0: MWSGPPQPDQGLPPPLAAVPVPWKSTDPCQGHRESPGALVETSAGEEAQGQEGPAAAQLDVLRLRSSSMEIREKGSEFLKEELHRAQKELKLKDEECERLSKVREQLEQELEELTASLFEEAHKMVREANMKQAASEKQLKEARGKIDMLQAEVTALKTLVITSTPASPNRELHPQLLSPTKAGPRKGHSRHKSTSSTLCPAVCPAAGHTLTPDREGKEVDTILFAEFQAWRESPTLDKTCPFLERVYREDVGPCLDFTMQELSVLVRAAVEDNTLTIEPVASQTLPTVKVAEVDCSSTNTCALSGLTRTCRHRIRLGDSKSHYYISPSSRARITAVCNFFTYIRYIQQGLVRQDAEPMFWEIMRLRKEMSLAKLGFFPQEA
# UniProt Q92688: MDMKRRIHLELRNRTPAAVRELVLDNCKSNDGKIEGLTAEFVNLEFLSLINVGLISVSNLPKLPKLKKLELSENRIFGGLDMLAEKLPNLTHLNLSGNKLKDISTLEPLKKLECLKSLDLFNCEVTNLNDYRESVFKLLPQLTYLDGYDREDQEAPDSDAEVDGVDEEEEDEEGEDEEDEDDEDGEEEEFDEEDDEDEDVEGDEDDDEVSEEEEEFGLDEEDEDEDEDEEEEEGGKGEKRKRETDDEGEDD
# UniProt Q969X5: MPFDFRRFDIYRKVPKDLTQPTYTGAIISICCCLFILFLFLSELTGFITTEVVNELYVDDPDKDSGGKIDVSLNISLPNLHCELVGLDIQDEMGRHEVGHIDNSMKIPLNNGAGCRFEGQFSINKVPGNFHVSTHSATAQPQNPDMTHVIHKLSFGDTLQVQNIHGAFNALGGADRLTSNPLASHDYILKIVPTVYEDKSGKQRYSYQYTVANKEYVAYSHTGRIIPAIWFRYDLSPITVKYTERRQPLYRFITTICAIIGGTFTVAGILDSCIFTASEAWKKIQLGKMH
# UniProt Q92828: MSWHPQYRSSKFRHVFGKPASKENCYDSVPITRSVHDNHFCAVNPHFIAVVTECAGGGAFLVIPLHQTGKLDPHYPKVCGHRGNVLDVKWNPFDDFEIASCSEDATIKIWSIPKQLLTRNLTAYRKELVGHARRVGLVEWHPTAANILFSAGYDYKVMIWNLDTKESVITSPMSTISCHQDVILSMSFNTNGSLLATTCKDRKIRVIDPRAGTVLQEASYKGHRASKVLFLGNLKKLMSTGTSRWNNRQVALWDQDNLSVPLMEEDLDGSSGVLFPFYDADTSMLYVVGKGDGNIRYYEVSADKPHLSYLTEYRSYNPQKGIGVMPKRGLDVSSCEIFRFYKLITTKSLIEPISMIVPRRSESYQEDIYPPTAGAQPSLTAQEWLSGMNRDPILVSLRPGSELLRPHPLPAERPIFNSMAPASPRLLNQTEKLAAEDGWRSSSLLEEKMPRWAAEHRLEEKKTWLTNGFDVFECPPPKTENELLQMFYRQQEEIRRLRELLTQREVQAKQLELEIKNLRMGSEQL
# UniProt Q8WZA9: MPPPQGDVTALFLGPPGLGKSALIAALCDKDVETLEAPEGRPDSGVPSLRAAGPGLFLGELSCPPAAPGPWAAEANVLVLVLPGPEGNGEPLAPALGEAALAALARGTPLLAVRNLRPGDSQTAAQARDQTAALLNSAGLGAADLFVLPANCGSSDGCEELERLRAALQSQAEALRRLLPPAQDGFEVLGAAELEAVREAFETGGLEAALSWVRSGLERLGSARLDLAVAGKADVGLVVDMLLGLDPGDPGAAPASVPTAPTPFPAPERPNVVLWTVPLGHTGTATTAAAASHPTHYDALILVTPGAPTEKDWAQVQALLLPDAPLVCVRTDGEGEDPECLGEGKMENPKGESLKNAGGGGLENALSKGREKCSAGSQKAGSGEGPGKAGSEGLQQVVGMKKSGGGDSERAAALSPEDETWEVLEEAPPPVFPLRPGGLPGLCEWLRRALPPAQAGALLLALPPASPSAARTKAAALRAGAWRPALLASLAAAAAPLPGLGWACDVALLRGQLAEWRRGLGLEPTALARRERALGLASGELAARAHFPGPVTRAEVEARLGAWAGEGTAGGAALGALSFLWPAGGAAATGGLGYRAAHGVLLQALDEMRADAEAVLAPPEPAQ
# UniProt Q92844: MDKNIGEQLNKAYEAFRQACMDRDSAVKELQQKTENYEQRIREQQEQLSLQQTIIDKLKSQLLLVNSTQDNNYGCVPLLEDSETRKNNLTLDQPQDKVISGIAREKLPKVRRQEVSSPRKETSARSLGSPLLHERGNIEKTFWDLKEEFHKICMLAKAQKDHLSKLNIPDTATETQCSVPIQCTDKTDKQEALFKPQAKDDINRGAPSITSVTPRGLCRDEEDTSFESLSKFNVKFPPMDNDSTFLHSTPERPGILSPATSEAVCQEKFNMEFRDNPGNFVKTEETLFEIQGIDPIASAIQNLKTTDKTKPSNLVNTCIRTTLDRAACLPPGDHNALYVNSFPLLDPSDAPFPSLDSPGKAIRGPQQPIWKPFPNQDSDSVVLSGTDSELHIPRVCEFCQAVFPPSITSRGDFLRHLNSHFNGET
# UniProt Q8TC07: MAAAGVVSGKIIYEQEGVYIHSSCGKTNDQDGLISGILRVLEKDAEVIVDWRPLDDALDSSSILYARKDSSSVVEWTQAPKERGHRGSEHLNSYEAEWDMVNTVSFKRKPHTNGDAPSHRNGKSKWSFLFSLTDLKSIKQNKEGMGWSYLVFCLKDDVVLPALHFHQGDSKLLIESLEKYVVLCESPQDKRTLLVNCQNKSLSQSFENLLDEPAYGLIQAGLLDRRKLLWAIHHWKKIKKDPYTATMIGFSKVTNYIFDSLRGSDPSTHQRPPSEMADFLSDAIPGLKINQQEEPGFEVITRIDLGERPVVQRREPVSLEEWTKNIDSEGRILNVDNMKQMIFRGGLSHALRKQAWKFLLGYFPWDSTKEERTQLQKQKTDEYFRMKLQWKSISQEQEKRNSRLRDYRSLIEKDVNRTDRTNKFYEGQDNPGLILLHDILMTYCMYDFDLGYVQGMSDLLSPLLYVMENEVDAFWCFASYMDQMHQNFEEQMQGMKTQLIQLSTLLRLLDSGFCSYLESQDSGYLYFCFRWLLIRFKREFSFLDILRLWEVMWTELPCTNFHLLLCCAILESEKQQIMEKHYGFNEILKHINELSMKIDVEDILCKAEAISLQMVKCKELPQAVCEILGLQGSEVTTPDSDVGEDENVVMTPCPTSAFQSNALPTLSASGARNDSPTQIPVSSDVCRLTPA
# UniProt Q92600, whole entry: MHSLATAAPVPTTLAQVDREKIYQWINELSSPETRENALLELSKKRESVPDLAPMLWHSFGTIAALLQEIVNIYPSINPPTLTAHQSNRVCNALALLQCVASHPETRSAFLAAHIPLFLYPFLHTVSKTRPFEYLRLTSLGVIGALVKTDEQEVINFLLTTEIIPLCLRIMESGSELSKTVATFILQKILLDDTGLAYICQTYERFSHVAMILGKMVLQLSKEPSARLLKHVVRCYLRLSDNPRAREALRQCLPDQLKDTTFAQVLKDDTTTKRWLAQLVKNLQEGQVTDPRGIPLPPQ
# UniProt Q8WV93: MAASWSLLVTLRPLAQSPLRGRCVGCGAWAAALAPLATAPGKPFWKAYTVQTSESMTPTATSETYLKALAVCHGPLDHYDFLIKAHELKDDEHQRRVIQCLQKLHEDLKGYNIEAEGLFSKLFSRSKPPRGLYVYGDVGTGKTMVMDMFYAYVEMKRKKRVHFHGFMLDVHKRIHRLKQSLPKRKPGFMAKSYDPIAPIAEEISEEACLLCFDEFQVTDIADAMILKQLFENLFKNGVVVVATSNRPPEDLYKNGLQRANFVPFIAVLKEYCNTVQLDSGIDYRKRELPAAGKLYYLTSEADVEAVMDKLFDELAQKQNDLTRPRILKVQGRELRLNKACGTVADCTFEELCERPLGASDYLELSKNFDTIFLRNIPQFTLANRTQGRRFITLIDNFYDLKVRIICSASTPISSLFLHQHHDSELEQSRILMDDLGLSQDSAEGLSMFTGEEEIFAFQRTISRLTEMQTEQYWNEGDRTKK
# UniProt Q92785, whole entry: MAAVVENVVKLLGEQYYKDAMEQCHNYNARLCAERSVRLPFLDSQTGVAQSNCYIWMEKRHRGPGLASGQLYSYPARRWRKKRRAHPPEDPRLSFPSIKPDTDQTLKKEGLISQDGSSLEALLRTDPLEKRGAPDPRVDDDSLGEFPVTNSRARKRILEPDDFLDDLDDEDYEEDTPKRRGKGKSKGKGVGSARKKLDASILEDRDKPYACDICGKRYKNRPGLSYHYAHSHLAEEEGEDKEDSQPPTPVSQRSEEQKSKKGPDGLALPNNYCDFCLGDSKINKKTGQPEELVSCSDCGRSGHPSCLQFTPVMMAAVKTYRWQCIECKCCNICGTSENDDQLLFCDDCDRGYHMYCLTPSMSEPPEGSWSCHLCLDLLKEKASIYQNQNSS
# UniProt Q92499: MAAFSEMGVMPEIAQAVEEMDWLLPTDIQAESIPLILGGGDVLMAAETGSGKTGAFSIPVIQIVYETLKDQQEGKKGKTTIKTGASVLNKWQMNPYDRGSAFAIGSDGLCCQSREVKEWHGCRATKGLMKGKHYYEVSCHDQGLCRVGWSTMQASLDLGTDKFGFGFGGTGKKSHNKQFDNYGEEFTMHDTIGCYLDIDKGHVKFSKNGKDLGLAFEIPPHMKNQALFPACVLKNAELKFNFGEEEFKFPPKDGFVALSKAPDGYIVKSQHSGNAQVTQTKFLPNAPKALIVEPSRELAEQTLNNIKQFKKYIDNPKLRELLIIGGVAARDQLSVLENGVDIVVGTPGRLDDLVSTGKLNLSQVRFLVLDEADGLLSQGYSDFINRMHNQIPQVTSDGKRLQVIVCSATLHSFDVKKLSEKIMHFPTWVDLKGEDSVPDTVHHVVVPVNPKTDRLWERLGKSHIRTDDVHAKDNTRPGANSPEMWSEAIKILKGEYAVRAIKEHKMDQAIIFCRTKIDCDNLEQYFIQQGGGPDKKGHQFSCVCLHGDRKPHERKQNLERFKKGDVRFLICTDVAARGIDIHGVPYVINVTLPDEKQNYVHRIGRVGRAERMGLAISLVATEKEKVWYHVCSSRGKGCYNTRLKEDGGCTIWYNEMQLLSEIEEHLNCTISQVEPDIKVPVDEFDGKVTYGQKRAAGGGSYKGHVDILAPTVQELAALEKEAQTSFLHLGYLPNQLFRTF
# ± gives the standard deviation of the averaged measurements. The entries are a selection whose mix differs from that of the whole data set.
# Compound: Nc1ncnc2c1ncn2[C@@H]1O[C@H](COP(=O)(O)OP(=O)(O)OP(=O)(O)O)[C@@H](O)[C@H]1O [adenosine triphosphate]
# Experiment: NP40-soluble protein abundance relative to vehicle (solubility fold change) (ratio); higher = more soluble protein in presence of ATP
# In short: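 Jurkat crude lysate prepared with a Dounce homogeniser was treated at eight concentrations spanning 0.1 to 10 mM, 10 min at room temperature then 3 min at 37 °C. Solubilisation with 0.8% NP40 and benzonase and ultracentrifugation preceded TMT labelling of the supernatant for LC-MS/MS. Fold change against the detergent-processed vehicle was determined per replicate from vsn-normalised intensities, across three independent experiments.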
Target,NP40-soluble protein abundance (concentration: 1mM),NP40-soluble protein abundance (concentration: 2mM),NP40-soluble protein abundance (concentration: 4mM),NP40-soluble protein abundance (concentration: 6mM),NP40-soluble protein abundance (concentration: 8mM),NP40-soluble protein abundance (concentration: 10mM)
UniProt Q92636 and related entries,1.08 ± 0.15,1.04 ± 0.12,1.05 ± 0.088,0.959 ± 0.14,1.07 ± 0.051,1.03 ± 0.067
COPS5 (UniProt Q92905),0.995 ± 0.053,1.01 ± 0.02,0.967 ± 0.024,0.962 ± 0.037,0.949 ± 0.012,0.98 ± 0.028
UniProt Q969N2 and related entries,0.915 ± 0.085,0.935 ± 0.076,0.931 ± 0.028,0.893 ± 0.07,0.917 ± 0.024,0.978 ± 0.054
UniProt Q93084-2,1.01 ± 0.04,0.997 ± 0.024,0.974 ± 0.017,0.976 ± 0.047,0.994 ± 0.015,0.978 ± 0.02
ZKSCAN4 (UniProt Q969J2),1.03 ± 0.1,1.132 ± 0.0066,1.04 ± 0.011,1.03 ± 0.034,1.13 ± 0.097,1.159 ± 0.0075
UniProt Q92552 and related entries,0.985 ± 0.052,0.939 ± 0.054,0.876 ± 0.057,0.909 ± 0.15,0.872 ± 0.11,0.851 ± 0.096
UniProt Q8TBN0 and related entries,0.893 ± 0.1,0.943 ± 0.052,1.06 ± 0.11,1.16 ± 0.12,0.917 ± 0.01,0.943 ± 0.061
UniProt Q8TBE0 and related entries,1.03 ± 0.035,0.991 ± 0.038,1.08 ± 0.02,1.1 ± 0.069,1.121 ± 0.0067,1.22 ± 0.13
UniProt Q92783 and related entries,0.951 ± 0.033,0.964 ± 0.0032,0.913 ± 0.013,0.9663 ± 0.0095,0.915 ± 0.013,0.902 ± 0.022
UniProt Q92688 and related entries,0.824 ± 0.085,0.806 ± 0.043,0.744 ± 0.059,0.774 ± 0.051,0.726 ± 0.021,0.697 ± 0.11
ERGIC1 (UniProt Q969X5),1.05 ± 0.12,0.998 ± 0.072,0.978 ± 0.039,0.949 ± 0.1,1.03 ± 0.05,1.02 ± 0.063
CORO2A (UniProt Q92828),1.04 ± 0.057,1.11 ± 0.2,1.18 ± 0.25,1.27 ± 0.28,1.31 ± 0.36,1.3 ± 0.25
UniProt Q8WZA9,0.931 ± 0.037,0.958 ± 0.015,0.926 ± 0.014,0.957 ± 0.022,0.919 ± 0.026,0.892 ± 0.037
UniProt Q92796-2|Q92796-3,1.05 ± 0.034,1.03 ± 0.044,0.995 ± 0.03,0.992 ± 0.046,0.998 ± 0.063,0.975 ± 0.022
SMARCC1 (UniProt Q92922),1.03 ± 0.079,1 ± 0.071,1 ± 0.078,1.08 ± 0.14,1.02 ± 0.077,1.02 ± 0.058
UniProt Q92844 and related entries,0.966 ± 0.065,0.986 ± 0.094,0.974 ± 0.052,1.04 ± 0.12,0.946 ± 0.053,0.934 ± 0.034
NUDCD2 (UniProt Q8WVJ2),0.983 ± 0.057,0.967 ± 0.013,0.963 ± 0.035,1.03 ± 0.051,0.95 ± 0.073,0.885 ± 0.035

Target,NP40-soluble protein abundance (concentration: 1mM),NP40-soluble protein abundance (concentration: 2mM),NP40-soluble protein abundance (concentration: 4mM),NP40-soluble protein abundance (concentration: 6mM),NP40-soluble protein abundance (concentration: 8mM),NP40-soluble protein abundance (concentration: 10mM)
UniProt Q92973 and related entries,0.949 ± 0.05,0.989 ± 0.073,0.972 ± 0.034,0.876 ± 0.086,0.924 ± 0.049,0.974 ± 0.048
DTD1 (UniProt Q8TEA8),0.958 ± 0.11,0.924 ± 0.081,0.913 ± 0.014,0.877 ± 0.092,0.903 ± 0.045,0.935 ± 0.017
UniProt Q8TD16-2|Q8TD16,0.98 ± 0.053,0.988 ± 0.022,0.978 ± 0.015,1.01 ± 0.039,0.951 ± 0.022,0.938 ± 0.028
UBXN4 (UniProt Q92575),0.97 ± 0.056,0.967 ± 0.035,0.965 ± 0.03,0.973 ± 0.021,0.958 ± 0.013,0.956 ± 0.024
MRPL24 (UniProt Q96A35),1.05 ± 0.058,0.869 ± 0.066,0.829 ± 0.079,0.841 ± 0.25,0.879 ± 0.14,0.82 ± 0.15
PYROXD1 (UniProt Q8WU10),1.03 ± 0.073,1.06 ± 0.064,1.06 ± 0.12,0.963 ± 0.1,0.989 ± 0.086,1.02 ± 0.038
UniProt Q8TC07 and related entries,0.989 ± 0.09,0.989 ± 0.058,0.993 ± 0.054,0.954 ± 0.072,1 ± 0.064,0.986 ± 0.051
SMCR8 (UniProt Q8TEV9),1 ± 0.019,0.959 ± 0.07,0.973 ± 0.041,0.977 ± 0.082,0.967 ± 0.037,0.971 ± 0.046
UniProt Q92974 and related entries,1.02 ± 0.016,1.01 ± 0.036,1.02 ± 0.044,1.03 ± 0.066,1.06 ± 0.048,1.07 ± 0.064
NUP205 (UniProt Q92621),1.03 ± 0.12,1.04 ± 0.096,1.05 ± 0.088,0.976 ± 0.11,1.12 ± 0.095,1.11 ± 0.051
UniProt Q92600 and related entries,1.07 ± 0.12,1.12 ± 0.064,1.35 ± 0.065,1.4 ± 0.3,1.44 ± 0.065,1.24 ± 0.26
TOPBP1 (UniProt Q92547),1.07 ± 0.052,1.07 ± 0.013,1.08 ± 0.06,1.1 ± 0.072,1.12 ± 0.04,1.12 ± 0.068
UniProt Q8WV93,0.911 ± 0.047,0.877 ± 0.056,0.799 ± 0.076,0.89 ± 0.087,0.811 ± 0.11,0.828 ± 0.13
DPF2 (UniProt Q92785),0.999 ± 0.024,0.978 ± 0.033,0.979 ± 0.02,0.997 ± 0.084,1.01 ± 0.04,1.01 ± 0.05
BAD (UniProt Q92934),0.861 ± 0.12,0.887 ± 0.12,0.915 ± 0.1,1.05 ± 0.21,0.896 ± 0.15,0.903 ± 0.17
DDX1 (UniProt Q92499),1.01 ± 0.043,0.988 ± 0.052,1 ± 0.054,1.01 ± 0.074,1.07 ± 0.051,1.04 ± 0.039
DDB2 (UniProt Q92466),0.963 ± 0.066,0.996 ± 0.074,0.97 ± 0.077,0.92 ± 0.063,1.01 ± 0.061,0.998 ± 0.041

# Looked up one by one from the entries so far, 2 records:
Target,NP40-soluble protein abundance (concentration: 1mM),NP40-soluble protein abundance (concentration: 2mM),NP40-soluble protein abundance (concentration: 4mM),NP40-soluble protein abundance (concentration: 6mM),NP40-soluble protein abundance (concentration: 8mM),NP40-soluble protein abundance (concentration: 10mM)
UniProt Q8WV93,0.911 ± 0.047,0.877 ± 0.056,0.799 ± 0.076,0.89 ± 0.087,0.811 ± 0.11,0.828 ± 0.13
UniProt Q92600 and related entries,1.07 ± 0.12,1.12 ± 0.064,1.35 ± 0.065,1.4 ± 0.3,1.44 ± 0.065,1.24 ± 0.26
